Measurements as given in the supplement of paper PMC7661543.
The effect of the compound repeats well; differences between the knockouts mostly do not.

Legend:
Assay in all cases: relative cell number vs DMSO control (72 h) (% of DMSO); higher = less growth inhibition (more cells)
BT-20 = system: BT-20
Experimental: (§1)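 QMAP-Seq: a pool of 5 breast cancer cell lines (ZR-75-1, SKBR3, HCC-38, MDA-MB-231, BT-20), each carrying 12 doxycycline-inducible Cas9 sgRNA perturbations (11 knockouts plus non-targeting sgNT), was treated with compounds for 72 h at four 10-fold doses (10 nM-10 uM or 1 nM-1 uM range). Barcodes were amplified and sequenced, and cell number was interpolated from 293T spike-in standard curves. The result is expressed as % of the median of DMSO wells. Two biological replicates.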

SKBR3 = system: SKBR3
Experimental: as §1

ZR-75-1 = system: ZR-75-1
Experimental: as §1

CS(=O)(=O)CCNCc1ccc(-c2ccc3ncnc(Nc4ccc(OCc5cccc(F)c5)c(Cl)c4)c3c2)o1 [Lapatinib]
relative cell number
Conditions | BT-20 | SKBR3 | ZR-75-1
sgRNA knockout: sgATF3, 10 nM | 106.6 | 97.3 | 81.9
sgRNA knockout: sgATF3, 100 nM | 92.5 | 87.1 | 109
sgRNA knockout: sgATF3, 1000 nM | 87.3 | 47.9 | 89.4
sgRNA knockout: sgATF3, 10000 nM | 56.86 | 17.3 | 42.1
sgRNA knockout: sgATF4, 10 nM | 105 | 96.2 | 119
sgRNA knockout: sgATF4, 100 nM | 97 | 79 | 104
sgRNA knockout: sgATF4, 1000 nM | 91.4 | 51.6 | 73.8
sgRNA knockout: sgATF4, 10000 nM | 54.9 | 16.8 | 39.9
sgRNA knockout: sgATF6, 10 nM | 84.8 | 87.4 | 81.1
sgRNA knockout: sgATF6, 100 nM | 83.2 | 73.9 | 76.2
sgRNA knockout: sgATF6, 1000 nM | 98.7 | 48 | 92.6
sgRNA knockout: sgATF6, 10000 nM | 51.5 | 14.5 | 28.8
sgRNA knockout: sgATG7, 10 nM | 103.6 | 98.8 | 90.7
sgRNA knockout: sgATG7, 100 nM | 89.7 | 98.2 | 77.3
sgRNA knockout: sgATG7, 1000 nM | 94.9 | 53.76 | 77.9
sgRNA knockout: sgATG7, 10000 nM | 56.8 | 18.3 | 33.5
sgRNA knockout: sgERN1, 10 nM | 80.3 | 102 | 87.5
sgRNA knockout: sgERN1, 100 nM | 79.4 | 80.8 | 53.1
sgRNA knockout: sgERN1, 1000 nM | 89.7 | 44.9 | 94.2
sgRNA knockout: sgERN1, 10000 nM | 51.5 | 16.3 | 36.8
sgRNA knockout: sgHSF1, 10 nM | 96.5 | 82.9 | –
sgRNA knockout: sgHSF1, 100 nM | 99.4 | 76.4 | –
sgRNA knockout: sgHSF1, 1000 nM | 78.4 | 35.1 | –
sgRNA knockout: sgHSF1, 10000 nM | 56.7 | 17.2 | –
sgRNA knockout: sgHSF2, 10 nM | 83.8 | 97.7 | 98.9
sgRNA knockout: sgHSF2, 100 nM | 76.4 | 68.5 | 86.6
sgRNA knockout: sgHSF2, 1000 nM | 91 | 51.8 | 86.9
sgRNA knockout: sgHSF2, 10000 nM | 63.9 | 16.8 | 35.7
sgRNA knockout: sgKEAP1, 10 nM | 101 | 105 | –
sgRNA knockout: sgKEAP1, 100 nM | 80.7 | 83 | –
sgRNA knockout: sgKEAP1, 1000 nM | 88.5 | 50.6 | –
sgRNA knockout: sgKEAP1, 10000 nM | 55.8 | 15.2 | –
sgRNA knockout: sgNFE2L2, 10 nM | 92.1 | 94.6 | 99.4
sgRNA knockout: sgNFE2L2, 100 nM | 101 | 71.1 | 72.4
sgRNA knockout: sgNFE2L2, 1000 nM | 97.4 | 45.1 | 81.49
sgRNA knockout: sgNFE2L2, 10000 nM | 68.7 | 16.6 | 33.3
sgRNA knockout: sgSLC35F2, 10 nM | 95.7 | 97 | 46
sgRNA knockout: sgSLC35F2, 100 nM | 95.3 | 80 | 78.4
sgRNA knockout: sgSLC35F2, 1000 nM | 92.4 | 51.5 | 121
sgRNA knockout: sgSLC35F2, 10000 nM | 55.7 | 21.1 | 28.4
sgRNA knockout: sgXBP1, 10 nM | 103 | 67.4 | 80.7
sgRNA knockout: sgXBP1, 100 nM | 88 | 89.2 | 76.3
sgRNA knockout: sgXBP1, 1000 nM | 91 | 45.6 | 78.22
sgRNA knockout: sgXBP1, 10000 nM | 64.6 | 20.6 | 30.9

CCOc1cc2ncc(C#N)c(Nc3ccc(OCc4ccccn4)c(Cl)c3)c2cc1NC(=O)/C=C/CN(C)C [Neratinib]
relative cell number
Conditions | BT-20 | SKBR3 | ZR-75-1
sgRNA knockout: sgATF3, 10 nM | 102 | 111 | 135
sgRNA knockout: sgATF3, 100 nM | 83.7 | 70.03 | 89.5
sgRNA knockout: sgATF3, 1000 nM | 81.4 | 27 | 85.4
sgRNA knockout: sgATF3, 10000 nM | 59.1 | 19.6 | 74.8
sgRNA knockout: sgATF4, 10 nM | 99.6 | 84.3 | 113
sgRNA knockout: sgATF4, 100 nM | 125 | 66.9 | 106.23
sgRNA knockout: sgATF4, 1000 nM | 83.2 | 23.6 | 79
sgRNA knockout: sgATF4, 10000 nM | 60.5 | 22.5 | 41
sgRNA knockout: sgATF6, 10 nM | 106 | 102 | 147
sgRNA knockout: sgATF6, 100 nM | 90.7 | 75.3 | 89.8
sgRNA knockout: sgATF6, 1000 nM | 91.6 | 29.2 | 88
sgRNA knockout: sgATF6, 10000 nM | 57.9 | 18 | 68.1
sgRNA knockout: sgATG7, 10 nM | 92.7 | 102 | 96.7
sgRNA knockout: sgATG7, 100 nM | 86.8 | 63.7 | 70.7
sgRNA knockout: sgATG7, 1000 nM | 69.6 | 23.4 | 56
sgRNA knockout: sgATG7, 10000 nM | 48.4 | 27.4 | 58.9
sgRNA knockout: sgERN1, 10 nM | 97.6 | 92.64 | 89.6
sgRNA knockout: sgERN1, 100 nM | 103 | 68.3 | 75.1
sgRNA knockout: sgERN1, 1000 nM | 82.3 | 23.1 | 92.3
sgRNA knockout: sgERN1, 10000 nM | 49 | 21.7 | 54.6
sgRNA knockout: sgHSF1, 10 nM | 93.83 | 82.9 | –
sgRNA knockout: sgHSF1, 100 nM | 98.5 | 61.4 | –
sgRNA knockout: sgHSF1, 1000 nM | 81.1 | 24.77 | –
sgRNA knockout: sgHSF1, 10000 nM | 59.7 | 20.6 | –
sgRNA knockout: sgHSF2, 10 nM | 101 | 97.1 | 110
sgRNA knockout: sgHSF2, 100 nM | 93.5 | 69.9 | 66.5
sgRNA knockout: sgHSF2, 1000 nM | 81.6 | 32 | 66.8
sgRNA knockout: sgHSF2, 10000 nM | 57 | 18 | 56.6
sgRNA knockout: sgKEAP1, 10 nM | 98.3 | 95.9 | –
sgRNA knockout: sgKEAP1, 100 nM | 95.8 | 58.6 | –
sgRNA knockout: sgKEAP1, 1000 nM | 77 | 24.9 | –
sgRNA knockout: sgKEAP1, 10000 nM | 58.5 | 20 | –
sgRNA knockout: sgNFE2L2, 10 nM | 99 | 85.2 | 75
sgRNA knockout: sgNFE2L2, 100 nM | 90.3 | 68.9 | 56.1
sgRNA knockout: sgNFE2L2, 1000 nM | 70.3 | 26.1 | 109
sgRNA knockout: sgNFE2L2, 10000 nM | 54.1 | 19.1 | 55.8
sgRNA knockout: sgSLC35F2, 10 nM | 101 | 82.5 | 90.1
sgRNA knockout: sgSLC35F2, 100 nM | 82.9 | 68 | 51
sgRNA knockout: sgSLC35F2, 1000 nM | 76.6 | 19.5 | 82.5
sgRNA knockout: sgSLC35F2, 10000 nM | 50.7 | 18.8 | 31.6
sgRNA knockout: sgXBP1, 10 nM | 111 | 89.773 | 82.4
sgRNA knockout: sgXBP1, 100 nM | 103 | 79.1 | 70.9
sgRNA knockout: sgXBP1, 1000 nM | 78.4 | 29.9 | 86
sgRNA knockout: sgXBP1, 10000 nM | 58 | 22.6 | 54.6
